Measured values taken from PubChem BioAssay AID330 (DTP/NCI, 2004).
The list shows only some results of the screen, not a fair sample: it gathers tests that were run many times, whatever their T/C, doses with no T/C, and many T/C values between a quarter and a half above the control. Further doses and runs are listed elsewhere. T/C: endpoint of the treated group in % of that of the vehicle group. Some entries give survivors of the animals treated and no T/C: the source files T/C as zero there, which appears to mark a toxic dose or a test without result, not a measured value. Some survivor counts are full or nearly so, which does not show that the dose was tolerated: survival well below the control is almost never listed, so the zero probably covers shortened survival too. Survivors were counted at the toxicity check, usually on the fifth day, unless a day is given; later deaths do not show. Schedules are NCI's codes, read here as Q, the interval in days (D) or hours (H), X, the number of doses. Signs of the kind (2×) stand for listed records that agree. Some doses were run more than once; their values stand side by side, smallest first. For survival time, the PubChem record calls one and a half times the control and up active, and a quarter to a half above the control has no call in these data; cut-offs in other NCI protocols can differ. Some T/C values are followed by the survivors on the day toxicity was checked, most often the fifth; where none is given, no animal had died by that day.

Test system: P388 leukemia ip, CD2F1 mice, survival T/C
Test: NCI In Vivo Anticancer Drug Screen. Data for tumor model P388 Leukemia (intraperitoneal) in CD2F1 (CDF1) mice
Conditions: T/C endpoint: median survival time, higher T/C = longer survival
[1] = dose: 12.5 mg/kg/injection, schedule: Q01DX009 (ip), vehicle: water
[2] = dose: 200.0 mg/kg/injection, schedule: Q01DX005 (ip), vehicle: Klucel (hydroxypropylcellulose) (HPC)
[3] = dose: 50.0 mg/kg/injection, schedule: Q04DX003 (ip), vehicle: saline with Tween-80
[4] = dose: 100.0 mg/kg/injection, schedule: Q04DX003 (ip), vehicle: saline
[5] = dose: 200.0 mg/kg/injection, schedule: Q04DX003 (ip), vehicle: saline
[6] = dose: 400.0 mg/kg/injection, schedule: Q04DX003 (ip), vehicle: saline
[7] = dose: 200.0 mg/kg/injection, schedule: Q01DX005 (ip), vehicle: saline with Tween-80
[8] = dose: 200.0 mg/kg/injection, schedule: Q01DX009 (ip), vehicle: saline
[9] = dose: 6.25 mg/kg/injection, schedule: Q01DX009 (ip), vehicle: water
[10] = dose: 200.0 mg/kg/injection, schedule: Q01DX005 (ip), vehicle: saline
[11] = dose: 50.0 mg/kg/injection, schedule: Q01DX009 (ip), vehicle: saline with Tween-80

`Nc1nc(N)c2cc(C=O)ccc2n1` was tested, and the survivor count [1] was 3 of 6, the survivor count (dose: 25.0 mg/kg/injection, schedule: Q01DX009 (ip), vehicle: water) was 2 of 6 and the survivor count (dose: 50.0 mg/kg/injection, schedule: Q01DX009 (ip), vehicle: water) was 1 of 6. For the same molecule, the survivor count (dose: 100.0 mg/kg/injection, schedule: Q01DX009 (ip), vehicle: water) was 0 of 6 and the survivor count (dose: 200.0 mg/kg/injection, schedule: Q01DX009 (ip), vehicle: water) was 0 of 6.
`CC1CCC(C(C)C)C(NC(=O)c2cc[n+](C)cc2)C1` (configuration not stated) was tested, and the survivor count [2] was 0 of 6.
In the case of `Cc1n(-c2ccccc2)nn[n+]1C`, the survivor count (dose: 25.0 mg/kg/injection, schedule: Q01DX009 (ip), vehicle: Klucel (hydroxypropylcellulose) (HPC)) is reported as 6 of 6.
`O=C(Nc1ccc(NC(=O)c2ccc(C3=NCCCN3)cc2)cc1)c1ccc(C2=NCCCN2)cc1` was tested, and the T/C (dose: 25.0 mg/kg/injection, schedule: Q04DX003 (ip), vehicle: saline with Tween-80) was 131 % of control, the T/C (dose: 33.0 mg/kg/injection, schedule: Q04DX003 (ip), vehicle: saline with Tween-80) was 141 % of control and the T/C [3] was 145 % of control. For the same molecule, the survivor count [3] was 1 of 6, the survivor count (dose: 75.0 mg/kg/injection, schedule: Q04DX003 (ip), vehicle: saline with Tween-80) was 3 of 6 and the survivor count [4] was 4 of 6. For the same molecule, the survivor count [5] was 1 of 6 and the survivor count [6] was 0 of 6.
In the case of `COc1ccc(C(=O)C(CN(C)C)CN(C)C)c(OC)c1`, the survivor count (dose: 30.0 mg/kg/injection, schedule: Q01DX005 (ip), vehicle: saline) is reported as 0 of 6, the survivor count (dose: 60.0 mg/kg/injection, schedule: Q01DX005 (ip), vehicle: saline) is reported as 0 of 6 and the survivor count (dose: 120.0 mg/kg/injection, schedule: Q01DX005 (ip), vehicle: saline) is reported as 0 of 6. The survivor count (dose: 240.0 mg/kg/injection, schedule: Q01DX005 (ip), vehicle: saline) was 0 of 6.
`OCC1(CO)COC2(CCCCC2)N1` was tested, and the T/C (dose: 400.0 mg/kg/injection, schedule: Q01DX009 (ip), vehicle: saline) was 147 % of control.
`CCN(CC)CCOC(=O)c1c(C)cc(C)cc1C` was tested, and the survivor count [5] was 4 of 6.
In the case of `CC1OC2=C(C(=O)c3ccccc3C2=O)C(O)C1O` (configuration not stated), the survivor count (dose: 12.5 mg/kg/injection, schedule: Q01DX001 (ip), vehicle: Klucel (hydroxypropylcellulose) (HPC)) is reported as 6 of 6, the survivor count (dose: 25.0 mg/kg/injection, schedule: Q01DX001 (ip), vehicle: Klucel (hydroxypropylcellulose) (HPC)) is reported as 6 of 6 and the survivor count (dose: 50.0 mg/kg/injection, schedule: Q01DX001 (ip), vehicle: Klucel (hydroxypropylcellulose) (HPC)) is reported as 6 of 6. For the same molecule, the survivor count (dose: 100.0 mg/kg/injection, schedule: Q01DX001 (ip), vehicle: Klucel (hydroxypropylcellulose) (HPC)) was 0 of 6 (2×), the survivor count (dose: 200.0 mg/kg/injection, schedule: Q01DX001 (ip), vehicle: Klucel (hydroxypropylcellulose) (HPC)) was 0 of 6 and the survivor count (dose: 400.0 mg/kg/injection, schedule: Q01DX001 (ip), vehicle: Klucel (hydroxypropylcellulose) (HPC)) was 0 of 6.
`CN(C)c1ccc(N=Cc2cc[n+](C)cc2)cc1` was tested, and the survivor count (dose: 100.0 mg/kg/injection, schedule: Q01DX009 (ip), vehicle: saline) was 0 of 6.
For `Nc1ccc(S(=O)(=O)n2c(=O)oc3cc(Br)ccc32)cc1`, the survivor count (dose: 50.0 mg/kg/injection, schedule: Q04DX002 (ip), vehicle: Klucel (hydroxypropylcellulose) (HPC)) was 6 of 6 and the survivor count (dose: 200.0 mg/kg/injection, schedule: Q04DX002 (ip), vehicle: Klucel (hydroxypropylcellulose) (HPC)) was 6 of 6.
`O=CC(=C\c1ccco1)/C(C=O)=C\c1ccco1` was tested, and the survivor count [7] was 0 of 6.
`COc1cccc(/C=N/NC(=O)c2ccccc2N2CCCC2)c1O` was tested, and the survivor count (dose: 400.0 mg/kg/injection, schedule: Q01DX009 (ip), vehicle: olive oil, sesame oil, peanut oil) was 4 of 6.
`CCOC(=O)C1=C(C#N)C2(CCC(OCc3ccccc3)CC2)C(=O)O1` (configuration not stated) was tested, and the T/C [8] was 127 % of control.
With `c1ccc2c(NCCCNCCCNc3c4ccccc4nc4ccccc34)c3ccccc3nc2c1` the T/C (dose: 2.5 mg/kg/injection, schedule: Q01DX009 (ip), vehicle: other) was 127 % of control [4 of 6 alive], the survivor count (dose: 5.0 mg/kg/injection, schedule: Q01DX009 (ip), vehicle: other) was 0 of 6 and the survivor count (dose: 10.0 mg/kg/injection, schedule: Q01DX009 (ip), vehicle: other) was 0 of 6. For the same molecule, the survivor count (dose: 20.0 mg/kg/injection, schedule: Q01DX009 (ip), vehicle: other) was 0 of 6.
For `COC(=O)C[CH2][Sn]([Cl])([Cl])[Cl]`, the survivor count [5] was 6 of 6 and the survivor count [6] was 0 of 6.
For `CN=C(N)N/N=C(\C)c1ccc(/C(C)=N/NC(N)=NC)cc1`, the survivor count (dose: 50.0 mg/kg/injection, schedule: Q04DX002 (ip), vehicle: saline with Tween-80) was 0 of 6 and the survivor count (dose: 100.0 mg/kg/injection, schedule: Q04DX002 (ip), vehicle: saline with Tween-80) was 0 of 6.
In the case of `CN(C)CCCCCC[N+](C)(C)Cc1ccc(C[N+](C)(C)CCCCCC[N+](C)(C)Cc2ccc(CCl)cc2)cc1`, the survivor count [4] is reported as 0 of 6, the survivor count [5] is reported as 0 of 6 and the survivor count [6] is reported as 0 of 6.
`COc1cccc2c1C(=O)c1c(O)c3c(c(O)c1C2=O)CC(O)(/C(C)=N/NS(=O)(=O)c1ccc(C)cc1)CC3OC1CC(N)C(O)C(C)O1` (configuration not stated) was tested, and the T/C (dose: 3.13 mg/kg/injection, schedule: Q01DX009 (ip), vehicle: water) was 139 % of control and the T/C [9] was 136 % of control.
For `CCN(CC)CCOC1C=C(C)C2CC1C2(C)C` (configuration not stated), the survivor count [10] was 0 of 6.
In the case of `Cc1ccc2nc(N/N=C/c3ccccn3)cc(C)c2c1`, the T/C [7] is reported as 125 [5 of 6 alive] and 137 % of control, the survivor count (dose: 300.0 mg/kg/injection, schedule: Q01DX005 (ip), vehicle: saline with Tween-80) is reported as 3 of 6 and the survivor count (dose: 400.0 mg/kg/injection, schedule: Q01DX005 (ip), vehicle: saline with Tween-80) is reported as 0 of 6.
`CCOC(=O)CNC(=O)NC(Cc1ccccc1)C(=O)OCC` (configuration not stated) was tested, and the survivor count [7] was 5 of 5.
`CCn1c(N)c(C(=S)NC)c(=O)n(CC)c1=O` was tested, and the survivor count [8] was 6 of 6.
For `N#CN=[N+]([O-])c1ccccc1Cl`, the survivor count (dose: 50.0 mg/kg/injection, schedule: Q04DX003 (ip), vehicle: Klucel (hydroxypropylcellulose) (HPC)) was 4 of 6.
`Clc1ncn[nH]1` was tested, and the survivor count (dose: 600.0 mg/kg/injection, schedule: Q01DX001 (ip), vehicle: Klucel (hydroxypropylcellulose) (HPC)) was 1 of 6.
`CCN(CC)CCN1C(=O)c2cccc3c(N)c(OC)cc(c23)C1=O` was tested, and the T/C [10] was 133 and 138 % of control.
`CCN(CC)CCOc1ccc(-c2cc(-c3ccccc3)nc(N)n2)cc1` was tested, and the survivor count [10] was 1 of 6, 2 of 6, 4 of 5.
For `CCCN(CCC)CC(O)c1cc2cc(C(F)(F)F)cc(C(F)(F)F)c2c2cc(Cl)c(Cl)cc12` (configuration not stated), the survivor count [11] was 6 of 6.
`C[n+]1c(-c2cccc(OCCCCCCCCCCCCCCCCOc3cccc(-c4c5cc(N)ccc5c5ccc(N)cc5[n+]4C)c3)c2)c2cc(N)ccc2c2ccc(N)cc21` was tested, and the T/C (dose: 3.12 mg/kg/injection, schedule: Q01DX009 (ip), vehicle: water) was 143 % of control, the T/C [9] was 125 % of control and the T/C [1] was 145 % of control. The survivor count [1] was 6 of 6.
With `CNC(=O)Nc1ccnc(=O)[nH]1` the T/C (dose: 100.0 mg/kg/injection, schedule: Q01DX005 (ip), vehicle: Klucel (hydroxypropylcellulose) (HPC)) was 126 % of control and the T/C [2] was 137 % of control [5 of 6 alive].
For `O=C1c2ccncc2C(=O)c2c(O)ccc(O)c21`, the survivor count (dose: 200.0 mg/kg/injection, schedule: Q01DX009 (ip), vehicle: distilled water + Tween-80) was 0 of 6.
`CC1CC2OC(=O)C3=C2C(CCC3)C12CC(c1ccoc1)OC2=O` (configuration not stated) was tested, and the survivor count [11] was 3 of 3 and the survivor count (dose: 100.0 mg/kg/injection, schedule: Q01DX009 (ip), vehicle: saline with Tween-80) was 0 of 3.
With `CC1CCC(OC(=O)N(CCCl)N=O)CC1` (configuration not stated) the T/C (dose: 50.0 mg/kg/injection, schedule: Q01DX001 (ip), vehicle: saline with Tween-80) was 126 and 127 % of control.
